The exact form of at least one protein or probe is not confirmed.
Molecular target: P-PhoP-His (phosphorylated PhoP) (Photorhabdus luminescens TT01) (UniProt Q7N3B2)
Experiment: EMSA
Conditions: acetyl phosphate-phosphorylated PhoP, shift observed at 1.5 uM, poly(dI-dC) and BSA present; recombinant protein; residues 1-222; protein details: N-terminal His; label: 5'-32P; probe letters rebuilt from the primers and the genome

CGGGATCCCCTACCGCTACCACTGAAGCCACTAATGTTCTTTTCATTGAAAATCCCTAATATTATATAAAATTATAGAAAAGATTAATTACGAGGCGCGATTATTTATCAACAATCAATAGAAAACAACTCAATCTCGTTTATTGTTAATTTCCCGTTTAACTAAGAAACTAGTGACTGCTCCGCTGTATCATGGAAATCTTCCCACTGCAATCGACTATTGTTCGTACTTATTAGTTCTTTATTACTATTGGAATAAACGCAAAAAAATTCCCTGTTTTACCACAGGGAATTTTGTATAGAATAGATAGTGATAACTAATAAAGGAATAATCTTCAGATTACATGGCTAAACCTGGATACCCGCTTTGAATTCCG (double strand) [ail1 Pl promoter region (360 bp)]
binding result: binds
